At least one structure is not confirmed: it was looked up by name or label, or the drawing left a doubt.
Test system: liver organoid cultures
Experiment: Hepatocyte differentiation of liver organoid cultures by added compounds, RT-PCR of hepatocyte markers
Conditions: compound added to EGF+FGF10 or HGF condition; CYP3A11 expression

## Cc1nc2sccn2c(=O)c1CCN1CCC(=C(c2ccccc2)c2ccc(F)cc2)CC1 [R 59022]
  Result CYP3AII: +

## CC(/C=C/C(=O)NO)=C\[C@@H](C)C(=O)c1ccc(N(C)C)cc1 [TSA]
  Result CYP3AII: −

— patent publication US11034935B2, “Liver organoid, uses thereof and culture method for obtaining them” (Koninklijke Nederlandse Akademie van Wetenschappen, priority 2010, dated 2021)
